Measurements: PubChem BioAssay AID493014 (National Center for Advancing Translational Sciences (NCATS), 2011)
The other results are listed elsewhere or left out. Further columns of the screen follow, without active or inactive calls. Compounds called inactive in the main read-out are mostly missing here. Words in brackets tell the shape of the fitted curve; partial curves, single points and poor fits give uncertain potencies.

Experiment: qHTS Assay to Find Inhibitors of Chronic Active B-Cell Receptor Signaling
Conditions: ABC-DLBCL IkBa-CBG/CBR reporter, luminescence ratio (green luciferase fused to IkBa over red control in TMD8 lymphoma cells), 4 h
Outline: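 Cell line TMD8 (human ABC DLBCL), stably expressing tet-inducible CBG68-IkBa fusion and CBR; IMDM/0.5% FBS; cpd up to 46 uM; dox induction, 4 h, 37C/5% CO2; dual luminescence; green/red ratio; MG132 control.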

[1] = measured here: CBR red luminescence, cell number
[2] = measured here: IkBa-CBG green luminescence

| SMILES | AC50 [1] | AC50 [2] |
| --- | --- | --- |
| Cc1cccc(N2CCN(C(=O)c3ccc4[nH]c(C)c(C)c4c3)CC2)c1C | 29.1 µM [rising, single point] | 29.1 µM [falling, single point] |
| Cc1c(OCc2ccc(C(=O)O)cc2)ccc2c(-c3ccccc3)cc(=O)oc12 | 7.08 µM [falling, partial curve, poor fit] | – |
| Cn1c(=O)n(-c2cccc(Cl)c2)c(=O)c2c3c(sc21)COC(C)(C)C3 | 0.631 µM [falling, partial curve, poor fit] | – |
| C/C(=N\N=C(c1ccccc1)c1ccccc1)c1cccs1 | 31.6 µM [rising, single point] | – |
| Cc1ccc(Nc2nnc(SC3CCOC3=O)s2)cc1 (configuration not stated) | 18.4 µM [falling, single point] | – |
| CC1=C(/C=C/C(C)=N\NC(=O)c2ccncc2)C(C)(C)CCC1 | 11.2 µM [rising, partial curve, poor fit] | – |
| CCOC(=O)c1cccc(Nc2ncnc3ccc(C)cc23)c1 | 12.6 µM [falling, partial curve, poor fit] | – |
| O=C(CCC1CCCC1)Nc1ccc([N+](=O)[O-])cn1 | 3.66 µM [rising, full curve, poor fit] | – |
| Cn1c(SCc2nc3ccccc3c(=O)[nH]2)nc2ccccc21 | 11.2 µM [falling, single point] | – |
| CC(=O)N(c1ccccc1)C(C)c1nc(C#N)c(C#N)nc1C (configuration not stated) | 23.1 µM [falling, single point] | – |
| Cc1cc(C)cc(NC(=O)Cc2ccc(-n3cccc3)cc2)c1 | 4.61 µM [rising, single point] | – |
| COC(=O)c1ccc(N2CCN(c3ccccc3)CC2)nc1 | 2.51 µM [rising, full curve, poor fit] | – |
| C=CCNC(=O)COc1ccc(S(=O)(=O)Nc2ccc(OCC)cc2)cc1 | 4.11 µM [rising, full curve, poor fit] | – |
| COc1ccccc1OCCn1c(=O)n(C)c2ccccc21 | 22.4 µM [rising, single point] | – |
| Cc1ccc2c(c1)C(=O)C(=O)N2CCCOc1ccccc1 | 3.16 µM [rising, partial curve] | – |
| O=C(CSc1n[nH]c(=O)[nH]c1=O)N/N=C/C=C/c1ccccc1 | 15.8 µM [rising, single point] | – |
| CN(Cc1c(C(=O)N/N=C/c2c(F)cccc2Cl)nnn1-c1nonc1N)c1ccccc1 | 35.5 µM [falling, single point] | – |
| COc1ccc(NC(=S)N2CCNC(=O)C2CC(=O)Nc2cccc(Cl)c2C)cc1 (configuration not stated) | 3.66 µM [rising, full curve, poor fit] | – |
| Cc1cc(SCC(=O)NC2CC2)nc2ccccc12 | 16.4 µM [rising, single point] | – |
| O=C(OCn1nnc2ccccc2c1=O)c1cc2ccccc2o1 | 5.01 µM [falling, full curve] | – |
| CCN1C(c2ccccc2)=C(c2ccccc2)S/C1=C/C=C1\SC(=S)N(C)C1=O | 23.1 µM [rising, single point] | – |
| CCCn1c(=O)c2[nH]c(-c3ccc(S(=O)(=O)O)cc3)nc2n(CCC)c1=O | 1.16 µM [falling, full curve] | – |

Single records, as listed above. Values in the order: AC50 [1]	AC50 [2]
Cc1c(OCc2ccc(C(=O)O)cc2)ccc2c(-c3ccccc3)cc(=O)oc12 is entered as 7.08 µM [falling, partial curve, poor fit]	–
CCCn1c(=O)c2[nH]c(-c3ccc(S(=O)(=O)O)cc3)nc2n(CCC)c1=O is entered as 1.16 µM [falling, full curve]	–
Cn1c(SCc2nc3ccccc3c(=O)[nH]2)nc2ccccc21 is entered as 11.2 µM [falling, single point]	–
COC(=O)c1ccc(N2CCN(c3ccccc3)CC2)nc1 is entered as 2.51 µM [rising, full curve, poor fit]	–

Shown as tab-separated lines: part of the list above
SMILES	AC50 [1]	AC50 [2]
O=C(CSc1n[nH]c(=O)[nH]c1=O)N/N=C/C=C/c1ccccc1	15.8 µM [rising, single point]	–
CN(Cc1c(C(=O)N/N=C/c2c(F)cccc2Cl)nnn1-c1nonc1N)c1ccccc1	35.5 µM [falling, single point]	–

Carrying on.

| SMILES | AC50 [1] | AC50 [2] |
| --- | --- | --- |
| COc1ccc2nc(NC(=O)CCNS(=O)(=O)c3ccc4c(c3)oc(=O)n4C)sc2c1 | 0.1 µM [falling, full curve, poor fit] | – |
| CCc1ccc2[nH]c(C(=O)Nc3ccc(Br)c(C)n3)cc2c1 | 0.447 µM [rising, full curve, poor fit] | – |
| O=C(Nc1ccccc1F)c1ccc2c(c1)OCO2 | 1.58 µM [falling, full curve] | – |
| COc1ccc(S(=O)(=O)N2CCCCCC2)cc1NC(=O)Cc1n[nH]c(=O)c2ccccc12 | 11.6 µM [falling, partial curve] | – |
| Cc1cc(NS(=O)(=O)c2ccc(NC(=O)COc3ccc(Cl)cc3)cc2)no1 | 0.146 µM [falling, full curve, poor fit] | – |
| CCC(COC)NC(=O)CCc1nnc(Cc2cccc(C(F)(F)F)c2)o1 (configuration not stated) | 3.16 µM [rising, single point] | – |
| CC(C)Oc1ccccc1C1Nc2ccccc2C(=O)N1c1ccc2c(c1)OCCO2 (configuration not stated) | 29.1 µM [falling, single point] | – |
| CCN(c1ccccc1)S(=O)(=O)c1ccc(Oc2ccc(-n3ccnc3)cc2)nc1 | 4.47 µM [falling, single point] | – |
| CCC(C)NC(=O)c1cc(-c2ccccc2O)on1 (configuration not stated) | 0.355 µM [falling, full curve] | – |
| CN1C(=O)/C(=C/C=C2\SCCN2C)OC1=S | 20 µM [rising, partial curve, poor fit] | – |
| O=C1CSC(=NC(=O)c2ccccc2)N1 | 29.1 µM [falling, single point] | – |
| O=C(CSc1n[nH]c(-c2ccccc2)n1)Nc1ncccn1 | 10 µM [falling, partial curve] | – |
| N#Cc1nc(-c2cccs2)oc1N1CCN(c2ccccc2)CC1 | 4.11 µM [rising, full curve] | – |
| N=C(N)N=Nc1c(O)[nH]c2ccc(Br)cc12 | 11.2 µM [falling, partial curve, poor fit] | – |
| CCc1ccc(-c2cc(C(=O)NCc3ccccn3)c3ccccc3n2)cc1 | 0.731 µM [rising, full curve, poor fit] | – |
| CCCCCSc1nc2c(c(=O)[nH]c(=O)n2C)n1C | 29.1 µM [rising, partial curve, poor fit] | – |
| O=C1CNC(=S)N1CCc1ccccc1Cl | 35.5 µM [rising, single point] | – |
| Cc1cccc(OCC(O)Cn2c(=N)n(CCN3CCCCC3)c3ccccc32)c1 (configuration not stated) | 17.8 µM [falling, single point] | – |
| COC(=O)CCC(NC(=O)c1cc(-c2ccc3c(c2)OCCO3)oc1C)C(=O)OC (configuration not stated) | 10 µM [falling, partial curve, poor fit] | – |
| COc1ccc(/C=N/NC(=O)c2[nH]c3ccc(Br)cc3c2-c2ccccc2)c(C(=O)O)c1OC | 11.2 µM [rising, partial curve] | 3.16 µM [falling, partial curve, poor fit] |
| Cc1[nH]nc2c1C(c1ccc(-c3ccccc3C#N)o1)C(C#N)=C(N)O2 (configuration not stated) | – | 22.4 µM [falling, partial curve, poor fit] |
| O=C(CSc1nnnn1Cc1ccccc1)NCC(=O)c1ccccc1 | 29.1 µM [rising, single point] | – |

| SMILES | AC50 [1] | AC50 [2] |
| --- | --- | --- |
| O=c1[nH]c(NCCO)nc2c1C1(CCCC1)Cc1ccccc1-2 | 8.91 µM [falling, single point] | – |
| Clc1ccc(SCc2cn3ccccc3n2)cc1 | 12.6 µM [falling, partial curve] | – |
| CCN1/C(=C/c2ccc3ccccc3[n+]2CC)C=Cc2ccccc21 | 2.91 µM [rising, partial curve, poor fit] | – |
| Cc1nn(C)c(C)c1/C=N/NC(=O)c1csc2ccccc12 | 20.6 µM [falling, single point] | – |
| CC(C)Cn1c2c(c(=O)[nH]c1=O)C(C(F)(F)F)(C(F)(F)F)N=C(CCC1CCCCC1)N2 | 1.84 µM [rising, full curve] | – |
| COc1ccc(N(CC(=O)NCc2ccco2)S(=O)(=O)c2ccccc2)cc1 | 5.62 µM [rising, single point] | – |
| O=C(CNc1cccc(C(F)(F)F)c1)N/N=C/c1cccc(Br)c1 | 5.8 µM [rising, partial curve, poor fit] | – |
| CCCSc1nnc(NC(=O)Nc2ccc(C)cc2)s1 | 3.55 µM [rising, full curve, poor fit] | – |
| CN(C)/C=C/C(=O)c1cccc(Oc2ncccn2)c1 | 12.6 µM [rising, partial curve] | – |
| Cc1ccc(C(=O)Nc2ccc3cn[nH]c3c2)cc1S(=O)(=O)N1CCCCC1 | 16.4 µM [falling, single point] | – |
| CCCSc1nnc(C(C)C)n1N | 4.61 µM [falling, single point] | – |
| NC(=O)CSc1nnc(Cc2csc(Nc3ccccc3)n2)n1Cc1ccccc1 | 11.2 µM [falling, single point] | – |
| COC(=O)c1cc(=O)n(Cc2ccco2)c(=Nc2ccc(F)cc2)s1 | 35.5 µM [falling, single point] | – |
| CC(C)C(NC(=O)Nc1ccccc1)C(=O)Nc1cccc(S(=O)(=O)N(C)C)c1 (configuration not stated) | 25.1 µM [falling, single point] | – |
| O=C(NCc1nnc(SCC(=O)N2CCC(Cc3ccccc3)CC2)o1)c1ccco1 | 11.2 µM [falling, partial curve] | – |
| c1ccc(CSc2ccc(-c3ccc4c(c3)OCO4)nn2)cc1 | 23.1 µM [rising, single point] | – |
| CCC(CO)Oc1cc(NCc2cccc(Cl)c2)c2ncn(C(C)C)c2c1 (configuration not stated) | 29.1 µM [falling, single point] | – |
| O=C(CCn1c(=O)sc2ccccc21)Nc1nc2ccccc2s1 | 10.3 µM [falling, partial curve] | – |
| O=C(Nc1cc(Cl)cc(Cl)c1)c1ccc(F)c(S(=O)(=O)NC2CCCCC2)c1 | 1.41 µM [rising, partial curve, poor fit] | – |
| COc1ccc(CCNC(=O)CCSCc2ccccc2Cl)cc1OC | 12.6 µM [rising, single point] | – |
| COc1cccc(-c2cc(C(=O)Nc3ccn(Cc4ccc(C)cc4)n3)no2)c1 | 1.78 µM [falling, full curve, poor fit] | – |
